Data source: PubChem BioAssay AID743121 (NCATS, 2013)

Aim: 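Partners whose loss is lethal together with topoisomerase I blockade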 (primary screen)
Cells: MDA-MB-231 cells, a human breast cancer line
Reagent: single siRNA against human genes, 20 nM siRNA (0.8 pmol per well)
Timing: 120 h (drug added 48 h after transfection, read 72 h later)
Challenge: camptothecin 20 nM (about EC30) for 72 h; vehicle 0.1% DMSO in parallel plates
Read-out: 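CellTiter-Glo ATP signal, scaled to control siRNA as percent viability; sensitisation given as log2 of untreated divided by camptothecin-treated viability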
Direction: log2 vehicle/camptothecin viability: higher = stronger sensitisation to camptothecin; viability with camptothecin: higher = more viable cells
Units: viability with camptothecin in % of control
Call rule: 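Active genes have an RSA gene-level p-value below 0.001, computed from the ratios of their separate siRNAs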
This is an unselected part of about 26,000 deposited reagents. In the full data, 167 (0.63%) were called active. 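Calls are per gene from RSA p-values that are not deposited; an individual active-marked siRNA can sensitise only weakly.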 Reagents against one gene are numbered here. Not all columns of the deposit are shown.

SHOC2 #1: log2 vehicle/camptothecin viability = -0.241; viability with camptothecin = 100; Outcome = inactive
SHOC2 #2: log2 vehicle/camptothecin viability = 0.409; viability with camptothecin = 20.3; Outcome = inactive
SHOC2 #3: log2 vehicle/camptothecin viability = -0.26; viability with camptothecin = 75.8; Outcome = inactive
SHOC2 #4: log2 vehicle/camptothecin viability = -0.543; viability with camptothecin = 88.1; Outcome = inactive
OR10A2: log2 vehicle/camptothecin viability = -0.405; viability with camptothecin = 97.3; Outcome = inactive
TLR2 #1: log2 vehicle/camptothecin viability = -0.194; viability with camptothecin = 97.8; Outcome = inactive
TLR2 #2: log2 vehicle/camptothecin viability = -0.378; viability with camptothecin = 88.2; Outcome = inactive
TLR2 #3: log2 vehicle/camptothecin viability = -0.0312; viability with camptothecin = 93; Outcome = inactive
TLR2 #4: log2 vehicle/camptothecin viability = 0.398; viability with camptothecin = 65.9; Outcome = inactive
CXCL13 #1: log2 vehicle/camptothecin viability = -0.446; viability with camptothecin = 111; Outcome = inactive
CXCL13 #2: log2 vehicle/camptothecin viability = 0.172; viability with camptothecin = 101; Outcome = inactive
CXCL13 #3: log2 vehicle/camptothecin viability = -0.227; viability with camptothecin = 51; Outcome = inactive
AGO4 #1: log2 vehicle/camptothecin viability = 1.08; viability with camptothecin = 31.8; Outcome = inactive
AGO4 #2: log2 vehicle/camptothecin viability = 0.0818; viability with camptothecin = 82.2; Outcome = inactive
AGO4 #3: log2 vehicle/camptothecin viability = -0.186; viability with camptothecin = 118; Outcome = inactive
